The text below walks through data of PubChem BioAssay AID248 (DTP/NCI, 2004).

The subject of the assay is L1210 leukemia ip in BDF1 mice, survival T/C. Put plainly: NCI In Vivo Anticancer Drug Screen. Data for tumor model L1210 Leukemia (intraperitoneal) in B6D2F1 (BDF1) mice. The note with it: T/C endpoint: mean survival time, higher T/C = longer survival.
Setting [1] is: dose: 200.0 mg/kg/injection, schedule: Q04DX003 (ip), vehicle: Klucel (hydroxypropylcellulose) (HPC).
Where [2] appears, read: dose: 400.0 mg/kg/injection, schedule: Q04DX003 (ip), vehicle: Klucel (hydroxypropylcellulose) (HPC).
Setting [3] is: dose: 300.0 mg/kg/injection, schedule: Q01DX001 (ip), vehicle: carboxymethylcellulose (CMC).
The mark [4] stands for this setting: dose: 400.0 mg/kg/injection, schedule: Q01DX001 (ip), vehicle: saline.
Setting [5] is: dose: 200.0 mg/kg/injection, schedule: Q01DX001 (ip), vehicle: saline.
Where [6] appears, read: dose: 400.0 mg/kg/injection, schedule: Q01DX009 (ip), vehicle: Klucel (hydroxypropylcellulose) (HPC).
Where [7] appears, read: dose: 400.0 mg/kg/injection, schedule: Q04DX003 (ip), vehicle: saline.
Setting [8] is: dose: 75.0 mg/kg/injection, schedule: Q01DX001 (ip), vehicle: saline.
[9] abbreviates: dose: 200.0 mg/kg/injection, schedule: Q04DX003 (ip), vehicle: saline.

The list shows only some results of the screen, not a fair sample: it gathers tests that were run many times, whatever their T/C, doses with no T/C, and many T/C values between a quarter and a half above the control. Further doses and runs are listed elsewhere. T/C: endpoint of the treated group in % of that of the vehicle group. Some doses have a count of surviving animals in place of a T/C: the source files T/C as zero there, which appears to mark a toxic dose or a test without result, not a measured value. Some doses without a T/C left all or most animals alive at the check, yet need not have been tolerated: survival well below the control is almost never listed, so the zero probably covers shortened survival too. Counts of survivors are from the toxicity check (mostly the fifth day) where no day follows; animals may have died later. Schedules are NCI's codes, read here as Q, the interval in days (D) or hours (H), X, the number of doses. Some entries were tested several times; the results are listed from low to high. Some schedule codes hold Z or #, which are not explained here. Where survival is the endpoint, this PubChem deposit counts one and a half times the control or more as active, and values a quarter to a half above the control carry no call in these data; other NCI protocols may use other cut-offs. Some T/C values are followed by the survivors on the day toxicity was checked, most often the fifth; where none is given, no animal had died by that day.

`COC(=O)[C@H]1[C@H]2C[C@@H]3c4[nH]c5cc(OC)ccc5c4CCN3C[C@H]2C[C@@H](OC(=O)/C=C/c2cc(OC)c(OC)c(OC)c2)[C@@H]1OC`: the survivor count is recorded as 6 of 6 (dose: 5.0 mg/kg/injection, schedule: Q01DX009 (ip), vehicle: saline with Tween-80); 6 of 6 (dose: 10.0 mg/kg/injection, schedule: Q01DX009 (ip), vehicle: saline with Tween-80); 6 of 6 (dose: 20.0 mg/kg/injection, schedule: Q01DX009 (ip), vehicle: saline with Tween-80); 4 of 4 (dose: 100.0 mg/kg/injection, schedule: Q04DX003 (ip), vehicle: Klucel (hydroxypropylcellulose) (HPC)); 2 of 4 under setting [1]; 1 of 4 under setting [2].

For `CCNC(=O)Nc1ncn[nH]1`, the survivor count under setting [3] was 3 of 6.

On to `CN1CN(c2ccccc2)CSC1=S`, for which, under setting [2], the survivor count is reported as 5 of 6.

In the case of `NC1CC(c2ccccc2)NC(c2ccccc2)C1` (stereo unspecified), the survivor count (dose: 30.0 mg/kg/injection, schedule: Q01DX001 (ip), vehicle: carboxymethylcellulose (CMC)) is recorded as 0 of 6; the survivor count (dose: 60.0 mg/kg/injection, schedule: Q01DX001 (ip), vehicle: carboxymethylcellulose (CMC)) is listed as 0 of 6; the survivor count (dose: 75.0 mg/kg/injection, schedule: Q01DX001 (ip), vehicle: carboxymethylcellulose (CMC)) was 0 of 6; the survivor count (dose: 150.0 mg/kg/injection, schedule: Q01DX001 (ip), vehicle: carboxymethylcellulose (CMC)) was 0 of 6; the survivor count under setting [3] is recorded as 0 of 6.

For `NC(=O)C1OC(n2cnc3c(N)ncnc32)C(O)C1O` (stereo unspecified), the T/C (dose: 0.39 mg/kg/injection, schedule: Q01DX005 (ip), vehicle: saline) was 125 % of control [4 of 6 alive]. The survivor count by setting is: (dose: 0.78 mg/kg/injection, schedule: Q01DX005 (ip), vehicle: saline) 0 of 6; (dose: 1.56 mg/kg/injection, schedule: Q01DX005 (ip), vehicle: saline) 3 of 6; (dose: 3.12 mg/kg/injection, schedule: Q01DX005 (ip), vehicle: saline) 0 of 6; (dose: 3.12 mg/kg/injection, schedule: Q01DX009 (ip), vehicle: saline) 0 of 6; (dose: 6.25 mg/kg/injection, schedule: Q01DX005 (ip), vehicle: saline) 0 of 6; (dose: 12.5 mg/kg/injection, schedule: Q01DX005 (ip), vehicle: saline) 0 of 6. For the same molecule, the survivor count by setting is: (dose: 25.0 mg/kg/injection, schedule: Q01DX005 (ip), vehicle: saline) 0 of 6; (dose: 50.0 mg/kg/injection, schedule: Q01DX005 (ip), vehicle: saline) 0 of 6.

Regarding `COc1nc(=S)nc(OC)[nH]1`, the survivor count (dose: 200.0 mg/kg/injection, schedule: Q01DX Z (ip), vehicle: methylcellulose (MC)) is on record as 2 of 6.

On to `CC[n+]1cn(-c2ccc(S(=O)(=O)[O-])cc2)nn1`, for which the survivor count under setting [4] is given as 0 of 6.

As for `Cc1cc[n+](CCCCCCCCCO)cc1`, the survivor count was 3 of 6 under setting [5] and 0 of 5 under setting [4].

Consider `CCc1c(C#N)oc2ccc(O)cc12`, for which, under setting [6], the survivor count was 6 of 6.

Take `O=P(NCCCl)(Nc1ccccc1)Nc1ccccc1`: the survivor count by setting is: under setting [1], 6 of 6; under setting [2], 6 of 6.

With `ClCCCCCCCCCCCl`, under setting [6], the T/C is 131 % of control.

Take `CN1N(C(O)C(Cl)(Cl)Cl)C12CCCCC2` (stereo unspecified): the survivor count runs as follows: (dose: 12.0 mg/kg/injection, schedule: Q01DX009 (ip), vehicle: water) 0 of 6; (dose: 25.0 mg/kg/injection, schedule: Q01DX009 (ip), vehicle: water) 0 of 6; (dose: 50.0 mg/kg/injection, schedule: Q01DX001 (ip), vehicle: carboxymethylcellulose (CMC)) 3 of 6; (dose: 50.0 mg/kg/injection, schedule: Q01DX009 (ip), vehicle: water) 1 of 6; (dose: 100.0 mg/kg/injection, schedule: Q01DX001 (ip), vehicle: carboxymethylcellulose (CMC)) 2 of 6; (dose: 100.0 mg/kg/injection, schedule: Q01DX009 (ip), vehicle: water) 0 of 6.

As to `C[n+]1ccccc1C=O`, the survivor count (dose: 400.0 mg/kg/injection, schedule: Q04DX002 (ip), vehicle: saline) is listed as 2 of 3.

Consider `COC(=O)c1ccc(C(=O)OC)[n+]([O-])c1`, for which the T/C under setting [7] was 133 % of control.

With `NC1=NC(CCc2ccccc2)N(c2ccc3ccccc3c2)C(N)=N1` (stereo unspecified), the survivor count is recorded as 0 of 6 (dose: 18.8 mg/kg/injection, schedule: Q01DX009 (ip), vehicle: saline sonified); 1 of 6 (dose: 37.5 mg/kg/injection, schedule: Q01DX001 (ip), vehicle: saline); 0 of 6 under setting [8].

On to `C=C(C)[P+](C)(c1ccccc1)c1ccccc1`, for which the survivor count is 1 of 6 (dose: 10.0 mg/kg/injection, schedule: Q01DX001 (ip), vehicle: saline); 0 of 6 (dose: 15.0 mg/kg/injection, schedule: Q01DX001 (ip), vehicle: saline); 0 of 6 (dose: 30.0 mg/kg/injection, schedule: Q01DX001 (ip), vehicle: saline); 0 of 6 (dose: 60.0 mg/kg/injection, schedule: Q01DX001 (ip), vehicle: saline); 0 of 6 under setting [8]; 0 of 6 (dose: 150.0 mg/kg/injection, schedule: Q01DX001 (ip), vehicle: saline). Also, the survivor count (dose: 300.0 mg/kg/injection, schedule: Q01DX001 (ip), vehicle: saline) was 1 of 6.

`COC(=O)C[CH2][Sn]([Br])([Br])[c]1ccccc1`: the survivor count by setting is: (dose: 200.0 mg/kg/injection, schedule: Q04DX002 (ip), vehicle: saline with Tween-80) 0 of 3; (dose: 400.0 mg/kg/injection, schedule: Q04DX002 (ip), vehicle: saline with Tween-80) 0 of 3.

As for `Cc1c(N)nc(C(CC(N)=O)NCC(N)C(N)=O)nc1C(=O)NC(C(=O)NC(C)C(O)C(C)C(=O)NC(C(=O)NCCc1nc(-c2nc(C(=O)NCCC[S+](C)C)cs2)cs1)C(C)O)C(OC1OC(CO)C(O)C(O)C1OC1OC(CO)C(O)C(OC(N)=O)C1O)c1cnc[nH]1` (stereo unspecified), the survivor count (dose: 16.0 mg/kg/injection, schedule: Q01DX009 (ip), vehicle: Klucel (hydroxypropylcellulose) (HPC)) is reported as 4 of 6.

With `C/C1=C/CCCCCC1`, the survivor count under setting [4] is 4 of 4.

In the case of `Nc1ccc(C(=O)O)c(C(=O)O)c1`, the survivor count (dose: 400.0 mg/kg/injection, schedule: Q01DX009 (ip), vehicle: saline with Tween-80) is 3 of 6.

On to `CCC1C2Cc3ccc(O)cc3C1(CC)CCN2C` (stereo unspecified), for which the survivor count under setting [5] was 0 of 4 and the survivor count under setting [4] is given as 0 of 4.

Regarding `IC1CCCOC1[n+]1ccccc1` (stereo unspecified), the survivor count by setting is: (dose: 100.0 mg/kg/injection, schedule: Q04DX003 (ip), vehicle: saline with Tween-80) 1 of 6; (dose: 200.0 mg/kg/injection, schedule: Q04DX003 (ip), vehicle: saline with Tween-80) 0 of 6; (dose: 400.0 mg/kg/injection, schedule: Q04DX003 (ip), vehicle: saline with Tween-80) 0 of 6.

In the case of `NS(=O)(=O)O.[Ni]`, the T/C (dose: 25.0 mg/kg/injection, schedule: Q04DX003 (ip), vehicle: saline) is 137 % of control [5 of 6 alive]. For the same molecule, the survivor count (dose: 100.0 mg/kg/injection, schedule: Q04DX003 (ip), vehicle: saline) is 1 of 6 and 2 of 6; the survivor count under setting [9] is on record as 0 of 6; the survivor count under setting [7] is recorded as 0 of 6.

Consider `C1CC2CCC1CNC2`, for which the survivor count under setting [9] was 1 of 6.

Take `NC1=NCCN1c1cccc2ccccc12`: under setting [3], the survivor count is recorded as 3 of 6.

Regarding `O=C(NCCCl)Nc1cccc2c1CCC2`, the survivor count under setting [2] is reported as 6 of 6.

With `O=c1[nH]c(C(F)(F)F)c(Cc2ccccc2)c(=O)[nH]1`, the survivor count (dose: 400.0 mg/kg/injection, schedule: Q01DX001 (ip), vehicle: gum acacia) is on record as 3 of 6.
